# The supplement of paper PMC8728848
# Some of the results follow.
# Experiments:
# Assay in all cases: glycan array binding signal (z-score within array); higher = stronger binding
# Details in all cases: glycan notation: IUPAC condensed, linker removed
# [1] = target: GalNAc(b1-4)GlcNAc(b1-2)Man
# Procedure, shortened: (§1)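 Glycan array binding is given as a within-array Z-score, which can be read as non-binding when negative. The arrays, 3228 of them, came from the Consortium for Functional Glycomics database and were retained only where the protein sequence was available. Z-scores were averaged across arrays of the same protein sequence at different concentrations or buffers and across linkers.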
# [2] = target: GalNAc(b1-4)GlcNAc(b1-2)Man(a1-3)[GalNAc(b1-4)GlcNAc(b1-2)Man(a1-6)]Man(b1-4)GlcNAc(b1-4)GlcNAc
# Procedure, shortened: as §1
# [3] = target: GalNAc(b1-4)GlcNAc(b1-3)GalNAc(b1-4)GlcNAc
# Procedure, shortened: as §1
# GalNAc(b1-4)GlcNAc6S = target: GalNAc(b1-4)GlcNAc6S
# Procedure, shortened: as §1
# GalNAc(b1-6)GalNAc = target: GalNAc(b1-6)GalNAc
# Procedure, shortened: as §1
# GalNAc3S(b1-4)GlcNAc = target: GalNAc3S(b1-4)GlcNAc
# Procedure, shortened: as §1
# GalNAc3S(b1-4)GlcNAc3S = target: GalNAc3S(b1-4)GlcNAc3S
# Procedure, shortened: as §1
# [4] = target: GalNAc3S(b1-4)[Fuc(a1-3)]GlcNAc
# Procedure, shortened: as §1
# GalNAc4S6S(b1-4)GlcNAc = target: GalNAc4S6S(b1-4)GlcNAc
# Procedure, shortened: as §1
# GalNAc6S(b1-4)GlcNAc = target: GalNAc6S(b1-4)GlcNAc
# Procedure, shortened: as §1
# Glc(a1-4)Glc = target: Glc(a1-4)Glc
# Procedure, shortened: as §1
# [5] = target: Glc(a1-4)Glc(a1-4)Glc(a1-4)Glc
# Procedure, shortened: as §1
# Glc(a1-6)Glc(a1-6)Glc = target: Glc(a1-6)Glc(a1-6)Glc
# Procedure, shortened: as §1
# [6] = target: Glc(a1-6)Glc(a1-6)Glc(a1-6)Glc
# Procedure, shortened: as §1
# Glc(b1-4)Glc = target: Glc(b1-4)Glc
# Procedure, shortened: as §1
# Glc(b1-6)Glc = target: Glc(b1-6)Glc
# Procedure, shortened: as §1
# GlcA(b1-3)Gal = target: GlcA(b1-3)Gal
# Procedure, shortened: as §1
# GlcA(b1-3)GlcNAc = target: GlcA(b1-3)GlcNAc
# Procedure, shortened: as §1
# GlcA(b1-6)Gal = target: GlcA(b1-6)Gal
# Procedure, shortened: as §1
# [7] = target: GlcA3S(b1-3)Gal(b1-4)GlcNAc(b1-2)Man
# Procedure, shortened: as §1
# [8] = target: GlcA3S(b1-3)Gal(b1-4)GlcNAc(b1-3)Gal(b1-4)Glc
# Procedure, shortened: as §1
# [9] = target: GlcNAc(a1-3)Gal(b1-4)GlcNAc
# Procedure, shortened: as §1
# [10] = target: GlcNAc(a1-4)Gal(b1-3)GlcNAc
# Procedure, shortened: as §1
# [11] = target: GlcNAc(a1-4)Gal(b1-4)GalNAc
# Procedure, shortened: as §1
# [12] = target: GlcNAc(a1-4)Gal(b1-4)GlcNAc
# Procedure, shortened: as §1
# [13] = target: GlcNAc(a1-4)Gal(b1-4)GlcNAc(b1-3)Gal(b1-4)Glc
# Procedure, shortened: as §1
# [14] = target: GlcNAc(a1-4)Gal(b1-4)GlcNAc(b1-3)Gal(b1-4)GlcNAc
# Procedure, shortened: as §1
# [15] = target: GlcNAc(a1-4)Gal(b1-4)GlcNAc(b1-3)Gal(b1-4)GlcNAc(b1-3)Gal(b1-4)GlcNAc
# Procedure, shortened: as §1
# [16] = target: GlcNAc(a1-4)Gal(b1-4)GlcNAc(b1-3)Gal(b1-4)[Fuc(a1-3)]GlcNAc(b1-3)Gal(b1-4)[Fuc(a1-3)]GlcNAc
# Procedure, shortened: as §1
# [17] = target: GlcNAc(a1-6)Gal(b1-4)GlcNAc
# Procedure, shortened: as §1
# [18] = target: GlcNAc(b1-2)Gal(b1-3)GalNAc
# Procedure, shortened: as §1
# [19] = target: GlcNAc(b1-2)Man(a1-3)[GlcNAc(b1-2)Man(a1-6)]Man(b1-4)GlcNAc(b1-4)GlcNAc
# Procedure, shortened: as §1
# [20] = target: GlcNAc(b1-2)Man(a1-3)[GlcNAc(b1-2)Man(a1-6)]Man(b1-4)GlcNAc(b1-4)[Fuc(a1-6)]GlcNAc
# Procedure, shortened: as §1
# [21] = target: GlcNAc(b1-2)Man(a1-3)[GlcNAc(b1-4)][GlcNAc(b1-2)Man(a1-6)]Man(b1-4)GlcNAc(b1-4)GlcNAc
# Procedure, shortened: as §1
# [22] = target: GlcNAc(b1-2)Man(a1-3)[GlcNAc(b1-4)][GlcNAc(b1-2)Man(a1-6)]Man(b1-4)GlcNAc(b1-4)[Fuc(a1-6)]GlcNAc
# Procedure, shortened: as §1
# [23] = target: GlcNAc(b1-2)[GlcNAc(b1-4)]Man(a1-3)[GlcNAc(b1-2)Man(a1-6)]Man(b1-4)GlcNAc(b1-4)GlcNAc
# Procedure, shortened: as §1
# [24] = target: GlcNAc(b1-2)[GlcNAc(b1-4)]Man(a1-3)[GlcNAc(b1-4)][GlcNAc(b1-2)Man(a1-6)]Man(b1-4)GlcNAc(b1-4)GlcNAc
# Procedure, shortened: as §1
# [25] = target: GlcNAc(b1-2)[GlcNAc(b1-4)]Man(a1-3)[GlcNAc(b1-4)][GlcNAc(b1-2)[GlcNAc(b1-6)]Man(a1-6)]Man(b1-4)GlcNAc(b1-4)GlcNAc
# Procedure, shortened: as §1
# [26] = target: GlcNAc(b1-2)[GlcNAc(b1-4)]Man(a1-3)[GlcNAc(b1-4)][GlcNAc(b1-2)[GlcNAc(b1-6)]Man(a1-6)]Man(b1-4)GlcNAc(b1-4)[Fuc(a1-6)]GlcNAc
# Procedure, shortened: as §1
# [27] = target: GlcNAc(b1-2)[GlcNAc(b1-6)]Man(a1-6)[GlcNAc(b1-2)Man(a1-3)]Man(b1-4)GlcNAc(b1-4)GlcNAc
# Procedure, shortened: as §1
# [28] = target: GlcNAc(b1-2)[GlcNAc(b1-6)]Man(a1-6)[GlcNAc(b1-2)Man(a1-3)]Man(b1-4)GlcNAc(b1-4)[Fuc(a1-6)]GlcNAc
# Procedure, shortened: as §1
# [29] = target: GlcNAc(b1-2)[GlcNAc(b1-6)]Man(a1-6)[GlcNAc(b1-4)][GlcNAc(b1-2)Man(a1-3)]Man(b1-4)GlcNAc(b1-4)GlcNAc
# Procedure, shortened: as §1
# GlcNAc(b1-3)Fuc = target: GlcNAc(b1-3)Fuc
# Procedure, shortened: as §1
# GlcNAc(b1-3)Gal = target: GlcNAc(b1-3)Gal
# Procedure, shortened: as §1
# [30] = target: GlcNAc(b1-3)Gal(b1-3)GalNAc
# Procedure, shortened: as §1
binder,measurement,setting,value
PX14343I-pdi-501-30-501 (Parabacteroides distasonis) (protein) SDQYSTETFWKTKEHASAGIMGCYNALKLWRSLHTMEFDMLTANAMPYNEANGTQAIGKGEHLSTTALIGSLWKNCYVGIGRTNTFIANVGGVDMDESEKAKMVGEAKFLRAFYYLSLVDKFGGVPLIIDAPNADEQAELPRNSKEEVVNQIVKDLEEAAAVLPDTYASSDLGRATKGAALALKARTLLYNSRWAEAAQAAKQVMESGVYQLFNDYRHFFSEDNKYNCEVIFDIEAKLPEYPTDYDQNIWRLNRPAPLKELVDTYLCVDGKTIEESPLYDPTRPYENRDPRLLKSIVCIGYPYLGKTITKEDVATTGFGVKKYTSYEDDVTIPLVERSAFNFILIRYAEVLLTYAEAQNEASGPDQSVYDAINQLRRRPDINMPEVPKGLTKDQMREVIRRERRIELTFEGLYYSDILRWKTAEKENNGMMHNYEGIEVVKRSFNPKRDYLWPIPYNQTVLNPNLEQNPNWD,glycan array binding signal (z-score),[1],-0.071
same,glycan array binding signal (z-score),[2],-0.398
same,glycan array binding signal (z-score),[3],-0.425
same,glycan array binding signal (z-score),GalNAc(b1-4)GlcNAc6S,-0.372
same,glycan array binding signal (z-score),GalNAc(b1-6)GalNAc,-0.155
same,glycan array binding signal (z-score),GalNAc3S(b1-4)GlcNAc,0.257
same,glycan array binding signal (z-score),GalNAc3S(b1-4)GlcNAc3S,-0.18
same,glycan array binding signal (z-score),[4],-0.495
same,glycan array binding signal (z-score),GalNAc4S6S(b1-4)GlcNAc,0.126
same,glycan array binding signal (z-score),GalNAc6S(b1-4)GlcNAc,-0.518
same,glycan array binding signal (z-score),Glc(a1-4)Glc,0.63
same,glycan array binding signal (z-score),[5],-0.823
same,glycan array binding signal (z-score),Glc(a1-6)Glc(a1-6)Glc,0.049
same,glycan array binding signal (z-score),[6],0.048
same,glycan array binding signal (z-score),Glc(b1-4)Glc,-0.425
same,glycan array binding signal (z-score),Glc(b1-6)Glc,-0.768
same,glycan array binding signal (z-score),GlcA(b1-3)Gal,0.102
same,glycan array binding signal (z-score),GlcA(b1-3)GlcNAc,0.786
same,glycan array binding signal (z-score),GlcA(b1-6)Gal,1.09
same,glycan array binding signal (z-score),[7],-0.55
same,glycan array binding signal (z-score),[8],-0.377
same,glycan array binding signal (z-score),[9],-0.157
same,glycan array binding signal (z-score),[10],-0.546
same,glycan array binding signal (z-score),[11],-0.61
same,glycan array binding signal (z-score),[12],-0.204
same,glycan array binding signal (z-score),[13],0.602
same,glycan array binding signal (z-score),[14],-0.88
same,glycan array binding signal (z-score),[15],-0.211
same,glycan array binding signal (z-score),[16],1.69
same,glycan array binding signal (z-score),[17],1.05
same,glycan array binding signal (z-score),[18],0.654
same,glycan array binding signal (z-score),[19],-0.171
same,glycan array binding signal (z-score),[20],0.468
same,glycan array binding signal (z-score),[21],-0.286
same,glycan array binding signal (z-score),[22],-1.08
same,glycan array binding signal (z-score),[23],-0.486
same,glycan array binding signal (z-score),[24],0.48
same,glycan array binding signal (z-score),[25],0.146
same,glycan array binding signal (z-score),[26],-0.084
same,glycan array binding signal (z-score),[27],-0.053
same,glycan array binding signal (z-score),[28],-0.797
same,glycan array binding signal (z-score),[29],-0.645
same,glycan array binding signal (z-score),GlcNAc(b1-3)Fuc,0.489
same,glycan array binding signal (z-score),GlcNAc(b1-3)Gal,0.184
same,glycan array binding signal (z-score),[30],0.325

# At a glance, part of the list above:
binder,measurement,setting,value
PX14343I-pdi-501-30-501 (Parabacteroides distasonis) (protein) SDQYSTETFWKTKEHASAGIMGCYNALKLWRSLHTMEFDMLTANAMPYNEANGTQAIGKGEHLSTTALIGSLWKNCYVGIGRTNTFIANVGGVDMDESEKAKMVGEAKFLRAFYYLSLVDKFGGVPLIIDAPNADEQAELPRNSKEEVVNQIVKDLEEAAAVLPDTYASSDLGRATKGAALALKARTLLYNSRWAEAAQAAKQVMESGVYQLFNDYRHFFSEDNKYNCEVIFDIEAKLPEYPTDYDQNIWRLNRPAPLKELVDTYLCVDGKTIEESPLYDPTRPYENRDPRLLKSIVCIGYPYLGKTITKEDVATTGFGVKKYTSYEDDVTIPLVERSAFNFILIRYAEVLLTYAEAQNEASGPDQSVYDAINQLRRRPDINMPEVPKGLTKDQMREVIRRERRIELTFEGLYYSDILRWKTAEKENNGMMHNYEGIEVVKRSFNPKRDYLWPIPYNQTVLNPNLEQNPNWD,glycan array binding signal (z-score),[26],-0.084
same,glycan array binding signal (z-score),[27],-0.053
